Binding data for 1 substance are collected here from article PMC12663309.

Protein sequences, listed by entry. Tags and fused reporters are not part of them.
UniProt Q8TDX7: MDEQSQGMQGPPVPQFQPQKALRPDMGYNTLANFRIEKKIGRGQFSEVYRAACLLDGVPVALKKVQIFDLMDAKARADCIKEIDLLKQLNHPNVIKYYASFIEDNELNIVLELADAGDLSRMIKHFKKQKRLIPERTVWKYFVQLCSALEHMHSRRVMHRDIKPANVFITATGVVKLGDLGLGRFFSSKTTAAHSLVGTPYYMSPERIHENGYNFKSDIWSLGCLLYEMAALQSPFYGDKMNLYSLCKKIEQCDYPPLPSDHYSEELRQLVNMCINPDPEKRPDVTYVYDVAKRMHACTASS
UniProt P21283: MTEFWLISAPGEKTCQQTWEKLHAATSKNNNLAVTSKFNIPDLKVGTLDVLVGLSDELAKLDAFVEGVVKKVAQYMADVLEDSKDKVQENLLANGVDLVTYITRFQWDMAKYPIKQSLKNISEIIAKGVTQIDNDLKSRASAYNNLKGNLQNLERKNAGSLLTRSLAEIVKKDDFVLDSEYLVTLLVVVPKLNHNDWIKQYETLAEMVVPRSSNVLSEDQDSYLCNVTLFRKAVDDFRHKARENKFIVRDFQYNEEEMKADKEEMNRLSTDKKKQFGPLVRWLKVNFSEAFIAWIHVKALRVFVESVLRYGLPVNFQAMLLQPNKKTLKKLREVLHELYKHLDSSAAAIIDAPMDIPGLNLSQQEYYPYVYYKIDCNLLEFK

These are yes or no findings as the source states them, for the method shown. Binding seen in cells or lysates may run through a third protein. Here binding means that the protein was enriched with, or labelled near, the bait; the list need not be complete.

This assay deals with NIMA-related kinase 7 (NEK7), endogenous, HepG2 mitochondria (human (endogenous in HepG2)) (UniProt Q8TDX7). The experiment in a line: affinity purification with mass spectrometry; mitochondrial proteins purified from HepG2 cells; co-immunoprecipitation with NEK7 antibody (Abcam) against IgG, agarose magnetic beads, gel, trypsin, LC-MS/MS.

For the substance VATC1 (from UniProt P21283 1-382), the binding result is given as “binds”.
